Taken from: PubChem BioAssay AID686938 (Drosophila RNAi Screening Center, 2013)
The deposit covers about 23,000 reagents; shown is a random part of those that have a named target and a result. Over the whole deposit, 75 (0.33%) got an active call. 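Raw plate signals without normalisation; calls rest on plate z-scores that were not deposited; ratio present for only 364 wells.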 Names joined by + are all predicted targets of the reagent. Not stated in the record: the dose of the treatment.

Screen: 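Knock-downs reducing store-operated calcium influx in Drosophila cells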 (primary screen)
Cells: Drosophila S2R+ cells
Reagent: long dsRNA against Drosophila genes, about 0.25 µg dsRNA per well, roughly 10,000 cells
Timing: 5 days of knock-down before the calcium assay
Conditions: thapsigargin (SERCA pump blocker) to empty calcium stores; entry signal taken 4 min after adding it
Detection: 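Duplicate raw fluo-4 intensities per well from a plate reader, at rest and four minutes after thapsigargin emptied calcium stores; entry-to-rest ratio filled for only some wells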
Direction: calcium entry signal: higher = stronger calcium signal after store depletion; entry to resting ratio: higher = more calcium entry relative to resting level; resting calcium signal: higher = higher resting calcium signal
Hit rule: 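Hit if the duplicate-averaged plate z-score for entry over resting signal is under −3; wells with weak total dye signal (Fmax z < −2) or more than 5 off-targets removed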
Meaning of the calls: active = strongly reduced calcium entry; inactive = no strong reduction

After knock-down of CG34050 (retired record) [DRSC09067], the record shows calcium entry signal, replicate 1 (fluorescence units) = 4.79e7; calcium entry signal, replicate 2 (fluorescence units) = 3.71e7; resting calcium signal, replicate 1 (fluorescence units) = 2.65e7; resting calcium signal, replicate 2 (fluorescence units) = 2.00e7; inactive. Depletion of Alas (Aminolevulinate synthase) [DRSC04044] came out at: calcium entry signal, replicate 1 (fluorescence units) = 3.87e7; resting calcium signal, replicate 1 (fluorescence units) = 1.97e7; inactive. Against Dup99B (Ductus ejaculatorius peptide 99B) [DRSC22877], the values are calcium entry signal, replicate 1 (fluorescence units) = 5.82e7; calcium entry signal, replicate 2 (fluorescence units) = 3.17e7; resting calcium signal, replicate 1 (fluorescence units) = 2.56e7; resting calcium signal, replicate 2 (fluorescence units) = 1.37e7; inactive. With knock-down of aurB (aurora B) [DRSC03548], the record shows calcium entry signal, replicate 1 (fluorescence units) = 2.71e7; resting calcium signal, replicate 1 (fluorescence units) = 1.86e7; inactive. With knock-down of aurB (aurora B) [DRSC23324] the results were calcium entry signal, replicate 1 (fluorescence units) = 3.38e7; calcium entry signal, replicate 2 (fluorescence units) = 4.20e7; resting calcium signal, replicate 1 (fluorescence units) = 2.06e7; resting calcium signal, replicate 2 (fluorescence units) = 2.25e7; inactive. For CycJ (Cyclin J) [DRSC08653] the deposit lists calcium entry signal, replicate 1 (fluorescence units) = 4.56e7; calcium entry signal, replicate 2 (fluorescence units) = 3.25e7; resting calcium signal, replicate 1 (fluorescence units) = 2.82e7; resting calcium signal, replicate 2 (fluorescence units) = 1.48e7; inactive.

CG11060 [DRSC06029] showed calcium entry signal, replicate 1 (fluorescence units) = 3.74e7; resting calcium signal, replicate 1 (fluorescence units) = 2.06e7; inactive. CG8420 [DRSC16418] showed calcium entry signal, replicate 1 (fluorescence units) = 4.49e7; calcium entry signal, replicate 2 (fluorescence units) = 3.39e7; resting calcium signal, replicate 1 (fluorescence units) = 2.12e7; resting calcium signal, replicate 2 (fluorescence units) = 1.79e7; inactive. With knock-down of RSG7 (Regulator of G-protein signaling 7) [DRSC20274], the record shows calcium entry signal, replicate 1 (fluorescence units) = 3.04e7; calcium entry signal, replicate 2 (fluorescence units) = 3.15e7; resting calcium signal, replicate 1 (fluorescence units) = 1.64e7; resting calcium signal, replicate 2 (fluorescence units) = 1.46e7; inactive. After knock-down of RSG7 (Regulator of G-protein signaling 7) [DRSC22852] the results were calcium entry signal, replicate 1 (fluorescence units) = 2.43e7; calcium entry signal, replicate 2 (fluorescence units) = 3.67e7; resting calcium signal, replicate 1 (fluorescence units) = 1.22e7; resting calcium signal, replicate 2 (fluorescence units) = 1.64e7; inactive. With knock-down of CycH (Cyclin H) [DRSC11861], the screen gave calcium entry signal, replicate 1 (fluorescence units) = 3.19e7; calcium entry signal, replicate 2 (fluorescence units) = 5.16e7; resting calcium signal, replicate 1 (fluorescence units) = 1.51e7; resting calcium signal, replicate 2 (fluorescence units) = 2.13e7; inactive. With knock-down of CycH (Cyclin H) [DRSC21308], the record shows calcium entry signal, replicate 1 (fluorescence units) = 5.15e7; calcium entry signal, replicate 2 (fluorescence units) = 3.18e7; resting calcium signal, replicate 1 (fluorescence units) = 2.33e7; resting calcium signal, replicate 2 (fluorescence units) = 1.48e7; inactive.

CG6567 + CG42394 [DRSC22241] showed calcium entry signal, replicate 1 (fluorescence units) = 3.31e7; calcium entry signal, replicate 2 (fluorescence units) = 5.29e7; resting calcium signal, replicate 1 (fluorescence units) = 1.61e7; resting calcium signal, replicate 2 (fluorescence units) = 2.75e7; inactive.

Just “resting calcium signal, replicate 1 (fluorescence units)” (2 entries from above):
CycH (Cyclin H) [DRSC21308] = 2.33e7
CG6567 + CG42394 [DRSC22241] = 1.61e7

The listing continues:
Knock-down of Bbd (Bombardier) [DRSC06709] resulted in: calcium entry signal, replicate 1 (fluorescence units) = 4.06e7; calcium entry signal, replicate 2 (fluorescence units) = 4.25e7; resting calcium signal, replicate 1 (fluorescence units) = 1.75e7; resting calcium signal, replicate 2 (fluorescence units) = 2.24e7; inactive. Against Smvt (Sodium-dependent multivitamin transporter) [DRSC15426], the values are calcium entry signal, replicate 1 (fluorescence units) = 2.60e7; calcium entry signal, replicate 2 (fluorescence units) = 3.95e7; entry to resting ratio 1.9; resting calcium signal, replicate 1 (fluorescence units) = 1.37e7; resting calcium signal, replicate 2 (fluorescence units) = 1.68e7; inactive. CG4022 [DRSC10395] showed calcium entry signal, replicate 1 (fluorescence units) = 2.37e7; calcium entry signal, replicate 2 (fluorescence units) = 3.24e7; resting calcium signal, replicate 1 (fluorescence units) = 1.22e7; resting calcium signal, replicate 2 (fluorescence units) = 1.44e7; inactive. Against obst-G (obstructor-G) [DRSC11103], the entry reads calcium entry signal, replicate 1 (fluorescence units) = 2.82e7; calcium entry signal, replicate 2 (fluorescence units) = 3.85e7; resting calcium signal, replicate 1 (fluorescence units) = 1.54e7; resting calcium signal, replicate 2 (fluorescence units) = 1.75e7; inactive. Against msb1l [DRSC03572] the deposit lists calcium entry signal, replicate 1 (fluorescence units) = 6.10e7; resting calcium signal, replicate 1 (fluorescence units) = 2.74e7; inactive. For Polr1A (RNA polymerase I subunit A) [DRSC07535], the entry reads calcium entry signal, replicate 1 (fluorescence units) = 1.62e7; calcium entry signal, replicate 2 (fluorescence units) = 2.72e7; resting calcium signal, replicate 1 (fluorescence units) = 9.92e6; resting calcium signal, replicate 2 (fluorescence units) = 1.47e7; inactive.

With knock-down of ste24a (prenyl protease type I) [DRSC07314], the screen gave calcium entry signal, replicate 1 (fluorescence units) = 4.74e7; calcium entry signal, replicate 2 (fluorescence units) = 4.21e7; resting calcium signal, replicate 1 (fluorescence units) = 1.98e7; resting calcium signal, replicate 2 (fluorescence units) = 1.82e7; inactive. NaPi-T (Na[+]-dependent inorganic phosphate cotransporter) [DRSC07476] scored calcium entry signal, replicate 1 (fluorescence units) = 3.40e7; calcium entry signal, replicate 2 (fluorescence units) = 4.06e7; resting calcium signal, replicate 1 (fluorescence units) = 1.72e7; resting calcium signal, replicate 2 (fluorescence units) = 1.74e7; inactive.
